Measured values published in publication doi:10.1101/2022.12.23.521824.
Substitutions are numbered along the chain they refer to. In names and notes the source's numbering stands. No constants are given. Whether binding was seen depends on the method and setting. Some entries that bind do so weakly or less than the wild type. Tags and fused reporters may be left off the sequences shown.

Amino acid sequences for entries named in this document (tags omitted).
UniProt P52297: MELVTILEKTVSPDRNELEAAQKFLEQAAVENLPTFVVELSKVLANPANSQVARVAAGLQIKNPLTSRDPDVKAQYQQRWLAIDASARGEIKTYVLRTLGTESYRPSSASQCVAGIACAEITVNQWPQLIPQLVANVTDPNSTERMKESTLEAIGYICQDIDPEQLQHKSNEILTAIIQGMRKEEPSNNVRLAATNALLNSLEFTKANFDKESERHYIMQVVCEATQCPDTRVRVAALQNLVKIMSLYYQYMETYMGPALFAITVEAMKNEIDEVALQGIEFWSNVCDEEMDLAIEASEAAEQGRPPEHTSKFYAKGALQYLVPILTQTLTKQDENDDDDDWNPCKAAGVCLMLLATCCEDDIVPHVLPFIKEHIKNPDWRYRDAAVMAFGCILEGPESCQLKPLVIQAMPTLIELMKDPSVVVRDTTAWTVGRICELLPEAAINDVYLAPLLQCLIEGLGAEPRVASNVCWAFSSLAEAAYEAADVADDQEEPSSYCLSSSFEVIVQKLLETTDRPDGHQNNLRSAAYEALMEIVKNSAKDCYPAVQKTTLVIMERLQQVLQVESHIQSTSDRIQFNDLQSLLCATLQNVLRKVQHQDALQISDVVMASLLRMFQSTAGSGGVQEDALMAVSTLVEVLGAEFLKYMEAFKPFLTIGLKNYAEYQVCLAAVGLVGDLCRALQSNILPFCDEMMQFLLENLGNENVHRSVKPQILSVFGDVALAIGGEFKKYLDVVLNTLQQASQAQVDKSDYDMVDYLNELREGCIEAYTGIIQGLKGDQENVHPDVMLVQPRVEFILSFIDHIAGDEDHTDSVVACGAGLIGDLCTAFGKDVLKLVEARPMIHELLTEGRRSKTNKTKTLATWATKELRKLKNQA

T1: GST-GFP-Haus8^1-150 (Xenopus laevis) (UniProt Q0IHJ3)
T1 sequence: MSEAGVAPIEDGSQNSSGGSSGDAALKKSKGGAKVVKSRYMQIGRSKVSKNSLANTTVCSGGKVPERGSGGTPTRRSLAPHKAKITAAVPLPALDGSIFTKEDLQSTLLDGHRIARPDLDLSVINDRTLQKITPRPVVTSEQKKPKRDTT

B1: Strep-GFP-Haus8^1-150 ΔNLS1 (K27A/K28A) (domain or fragment, UniProt Q0IHJ3 1-150)
chain: T1 sequence with K27A, K28A
B2: Strep-GFP-Haus8^1-150 ΔNLS2 (K143A/K144A) (domain or fragment, UniProt Q0IHJ3 1-150)
chain: T1 sequence with K143A, K144A
B3: Strep-GFP-Haus8^1-150 with mutations to both NLS sites (K27A/K28A and K143A/K144A) (domain or fragment, UniProt Q0IHJ3 1-150)
chain: T1 sequence with K27A, K28A, K143A, K144A
B4: Strep-GFP-Haus8^1-150 (domain or fragment, UniProt Q0IHJ3 1-150)
chain: T1 sequence

Key:
[1] = target: T1, GST-GFP-Haus8^1-150 (Xenopus laevis); test: TIRF microscopy of binding to immobilised microtubules
[2] = target: GST-importin-β (Xenopus laevis) (UniProt P52297); test: pull-down

Molecule | binding [1] | binding [2]
GST-importin-β (from UniProt P52297 1-876) | binds | –
B1 | – | binds
B2 | – | binds
B3 | – | binds
B4 | – | binds
